# Laboratory results: patent publication US20240108662A1, “ENGINEERED CELLS FUNCTIONALIZED WITH IMMUNE CHECKPOINT MOLECULES AND USES THEREOF” (The University of North Carolina at Chapel Hill, priority 2020, published 2024)
# B1: P55096 (protein, UniProt P55096 1-659, looked up)
# chain: MAAFSKYLTARNTSLAGAAFLLLCLLHKRRRALGLHGKKSGKPPLQNNEKEGKKERAVVDKVFLSRLSQILKIMVPRTFCKETGYLLLIAVMLVSRTYCDVWMIQNGTLIESGIIGRSSKDFKRYLFNFIAAMPLISLVNNFLKYGLNELKLCFRVRLTRYLYEEYLQAFTYYKMGNLDNRIANPDQLLTQDVEKFCNSVVDLYSNLSKPFLDIVLYIFKLTSAIGAQGPASMMAYLLVSGLFLTRLRRPIGKMTIMEQKYEGEYRYVNSRLITNSEEIAFYNGNKREKQTIHSVFRKLVEHLHNFIFFRFSMGFIDSIIAKYVATVVGYLVVSRPFLDLAHPRHLHSTHSELLEDYYQSGRMLLRMSQALGRIVLAGREMTRLAGFTARITELMQVLKDLNHGRYERTMVSQQEKGIEGAQASPLVPGAGEIINTDNIIKFDHVPLATPNGDILIQDLSFEVRSGANVLICGPNGCGKSSLFRVLGELWPLFGGRLTKPERGKLFYVPQRPYMTLGTLRDQVIYPDGKEDQKKRGISDQVLKEYLDNVQLGHILEREGGWDSVQDWMDVLSGGEKQRMAMARLFYHKPQFAILDECTSAVSVDVEDYIYSHCRKVGITLFTVSHRKSLWKHHEYYLHMDGRGNYEFKKITEDTVEFGS
# modifications: full-length
# B2: Q9DBU0 (protein, UniProt Q9DBU0 1-606, looked up)
# chain: MTVLGYPRSWSCHCLPVLILLLGIGHGPWVEGVTHYKPGDPVILYVNKVGPYHNPQETYHYYQLPVCCPEKIRHKSLSLGEVLDGDRMAESLYEIRFRENVEKRILCHMQLSSAQVEQLRQAIEELYYFEFVVDDLPIRGFVGYMEESGFLPHSHKIGLWTHLDFHLEFHGDRIIFANVSVRDVKPHSLDGLRSDELLGLTHTYSVRWSETSVEHRSDRRRGDDGGFFPRTLEIHWLSIINSMVLVFLLVGFVAVILMRVLRNDLARYNLDEETSSGGSSDDFDQGDNGWKIIHTDVFRFPPYRGLLCAVLGVGAQFLALGTGIIVMALLGMFNVHRHGAINSAAILLYALTCCISGYVSSHFYRQIGGERWVWNIILTSSLFSVPFFLTWSVVNSVHWANGSTQALPATTILLLLTVWLLVGFPLTVIGGIFGKNNASPFDAPCRTKNIAREIPPQPWYKSTVIHMTVGGFLPFSAISVELYYIFATVWGREQYTLYGILFFVFAILLSVGACISIALTYFQLSGEDYRWWWRSVLSVGSTGLFIFLYSVFYYARRSNMSGAVQTVEFFGYSLLTGYVFFLMLGTISFFSSLKFIRYIYVNLKMD
# modifications: full-length
# B3: Q80WV3 (protein, UniProt Q80WV3 1-530, looked up)
# chain: MSRSSPRALPPGALPRPLPAAPAAVQRALLPPWPRRAGRRWPASPLGMKVFRRKALVLCAGYALLLVLTMLNLLDYKWHKEPLQQCNPDGPLGAAVGAAGAGWGRPGSPPAAPPRAHSRMDPRTPYRPPAAGVGAVPAAAAGSAGAAASLGNATRGTRGGGDKRQLVYVFTTWRSGSSFFGELFNQNPEVFFLYEPVWHVWQKLYPGDAVSLQGAARDMLSALYRCDLSVFQLYSPAGSGGRNLTTLGIFGAATNKVVCSSPLCPAYRKEVVGLVDDRVCKKCPPQRLARFEEECRKYRTLVIKGVRVFDVAVLAPLLKDPALDLKVIHLVRDPRAVASSRIRSRHGLIRESLQVVRSRDPRAHRMPFLEAAGHKLGAKKEGMGGPADYHALGAMEVICNSMAKTLQTALQPPDWLQGHYLVVRYEDLVGDPVKTLRRVYDFVGLLVSPEMEQFALNMTSGSGSSSKPFVVSARNATQAANAWRTALTFQQIKQVEEFCYQPMAVLGYERVNSPEEVKDLSKTLLRKPRL
# modifications: full-length
# B4: O35682 (protein, UniProt O35682 1-320, looked up)
# chain: MPVTVTRTTITTTTSSSTTVGSARALTQPLGLLRLLQLISTCVAFSLVASVGAWTGPMGNWAMFTWCFCFAVTLIILIVELGGLQAHFPLSWRNFPITFACYAALFCLSSSIIYPTTYVQFLAHGRTRDHAIAATTFSCVACLAYATEVAWTRARPGEITGYMATVPGLLKVFETFVACIIFAFISEPLLYNQKPALEWCVAVYAICFILAGVTILLNLGDCTNVLPIPFPTFLSGLALLSVLFYATAIVLWPLYQFDQRYQGQPRRSMDPSCTRSISYIQPNTVCFWDRRLAVSILTGINLLAYVSDLVYSTRLVFVKV
# modifications: full-length
# Assay: Proteomic analysis of native murine pancreata and decelled pancreatic ECM (Table 1)
# Design: species or system mouse
# Conditions: abundance of the listed protein in decelled pancreatic ECM
row,Molecule,Pancreatic ECM: Mean of log2(intensities) [a.u.]
1,B1,24.94
2,B2,25.42
3,B3,25.47
4,B4,25.42

# Same assay, conditions: abundance of the listed protein in native murine pancreas tissue
row,Molecule,Native pancreas tissue: Mean of log2(intensities) [a.u.]
1,B1,21.01
2,B2,21.68
3,B3,21.76
4,B4,21.74
